{"source": "PubChem BioAssay AID1259405 (NCATS, 2018)", "purpose": "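Knock-downs that lift recombinant protein yield in hamster ovary cells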 (primary screen)", "cells": "Chinese hamster CHO-K1 ovary cells with stable secreted eGFP expression", "reagent": "single siRNA against mouse genes, 0.8 pmol siRNA per well (2 µl of 400 nM stock)", "duration": "3 days", "measured": "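Per-well intracellular GFP measured by laser scanning cytometry, plus viability from ATP luminescence, each relative to plate median of non-targeting control wells, in %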", "reading the numbers": "GFP, % of control: higher = more GFP per well, higher productivity; viability (ATP), % of control: higher = more viable cells (more ATP)", "rule for the call": "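Called active when intracellular GFP, relative to negative control, is at or above 120%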", "note": "The whole screen tested about 50,000 reagents; shown is an unselected part. About 4,000 of all reagents (8%) were called active. 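Mouse siRNA library applied to hamster cells; one well for each siRNA.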 The numbers tell different reagents against one gene apart. No sequences are given here."}
{"gene": "Or5g26", "siRNA no.": 1, "GFP, % of control": 55.5, "viability (ATP), % of control": 75.4, "Outcome": "inactive"}
{"gene": "Or5g26", "siRNA no.": 2, "GFP, % of control": 65.3, "viability (ATP), % of control": 67.1, "Outcome": "inactive"}
{"gene": "Or5g26", "siRNA no.": 3, "GFP, % of control": 79.6, "viability (ATP), % of control": 84.2, "Outcome": "inactive"}
{"gene": "Plod3", "siRNA no.": 1, "GFP, % of control": 89.1, "viability (ATP), % of control": 81, "Outcome": "inactive"}
{"gene": "Plod3", "siRNA no.": 2, "GFP, % of control": 78.2, "viability (ATP), % of control": 59.7, "Outcome": "inactive"}
{"gene": "Plod3", "siRNA no.": 3, "GFP, % of control": 52.9, "viability (ATP), % of control": 33.3, "Outcome": "inactive"}
{"gene": "Kazald1", "siRNA no.": 1, "GFP, % of control": 65.4, "viability (ATP), % of control": 78.9, "Outcome": "inactive"}
{"gene": "Kazald1", "siRNA no.": 2, "GFP, % of control": 81.2, "viability (ATP), % of control": 91.8, "Outcome": "inactive"}
{"gene": "Kazald1", "siRNA no.": 3, "GFP, % of control": 101, "viability (ATP), % of control": 85.8, "Outcome": "inactive"}
{"gene": "Cuta", "siRNA no.": 1, "GFP, % of control": 65.1, "viability (ATP), % of control": 25.4, "Outcome": "inactive"}
{"gene": "Cuta", "siRNA no.": 2, "GFP, % of control": 104, "viability (ATP), % of control": 84.2, "Outcome": "inactive"}
{"gene": "Cuta", "siRNA no.": 3, "GFP, % of control": 120, "viability (ATP), % of control": 90.6, "Outcome": "inactive"}
{"gene": "Pard3", "siRNA no.": 1, "GFP, % of control": 54.3, "viability (ATP), % of control": 78.7, "Outcome": "inactive"}
{"gene": "Pard3", "siRNA no.": 2, "GFP, % of control": 102, "viability (ATP), % of control": 108, "Outcome": "inactive"}
{"gene": "Pard3", "siRNA no.": 3, "GFP, % of control": 71.9, "viability (ATP), % of control": 141, "Outcome": "inactive"}
{"gene": "Serpina1f", "siRNA no.": 1, "GFP, % of control": 20.3, "viability (ATP), % of control": 41.7, "Outcome": "inactive"}
{"gene": "Serpina1f", "siRNA no.": 2, "GFP, % of control": 129, "viability (ATP), % of control": 65.9, "Outcome": "active"}
{"gene": "Serpina1f", "siRNA no.": 3, "GFP, % of control": 112, "viability (ATP), % of control": 102, "Outcome": "inactive"}
{"gene": "Frey1", "siRNA no.": 1, "GFP, % of control": 71.1, "viability (ATP), % of control": 42.3, "Outcome": "inactive"}
{"gene": "Frey1", "siRNA no.": 2, "GFP, % of control": 182, "viability (ATP), % of control": 147, "Outcome": "active"}
{"gene": "Frey1", "siRNA no.": 3, "GFP, % of control": 55.3, "viability (ATP), % of control": 62.2, "Outcome": "inactive"}
{"gene": "Spata9", "siRNA no.": 1, "GFP, % of control": 90, "viability (ATP), % of control": 105, "Outcome": "inactive"}
{"gene": "Spata9", "siRNA no.": 2, "GFP, % of control": 99.6, "viability (ATP), % of control": 84.3, "Outcome": "inactive"}
{"gene": "Spata9", "siRNA no.": 3, "GFP, % of control": 63.6, "viability (ATP), % of control": 102, "Outcome": "inactive"}
{"gene": "Srsf6", "siRNA no.": 1, "GFP, % of control": 94.6, "viability (ATP), % of control": 126, "Outcome": "inactive"}
{"gene": "Srsf6", "siRNA no.": 2, "GFP, % of control": 63.2, "viability (ATP), % of control": 72.4, "Outcome": "inactive"}
{"gene": "Pcyox1l", "siRNA no.": 1, "GFP, % of control": 66.8, "viability (ATP), % of control": 90.7, "Outcome": "inactive"}
{"gene": "Pcyox1l", "siRNA no.": 2, "GFP, % of control": 75.2, "viability (ATP), % of control": 60.1, "Outcome": "inactive"}
{"gene": "Pcyox1l", "siRNA no.": 3, "GFP, % of control": 105, "viability (ATP), % of control": 132, "Outcome": "inactive"}

Hits, among the entries above:
{"gene": "Serpina1f", "siRNA no.": 2, "GFP, % of control": 129, "viability (ATP), % of control": 65.9, "Outcome": "active"}
{"gene": "Frey1", "siRNA no.": 2, "GFP, % of control": 182, "viability (ATP), % of control": 147, "Outcome": "active"}
